Source: article PMC3648463, “Common Interactions between S100A4 and S100A9 Defined by a Novel Chemical Probe” (PLoS ONE, 2013)

The chains behind the UniProt entries cited, without tags or fusion partners. Where a name states a change or a piece, a line headed by the entry shows the natural chain unless it says otherwise.
UniProt Q15109: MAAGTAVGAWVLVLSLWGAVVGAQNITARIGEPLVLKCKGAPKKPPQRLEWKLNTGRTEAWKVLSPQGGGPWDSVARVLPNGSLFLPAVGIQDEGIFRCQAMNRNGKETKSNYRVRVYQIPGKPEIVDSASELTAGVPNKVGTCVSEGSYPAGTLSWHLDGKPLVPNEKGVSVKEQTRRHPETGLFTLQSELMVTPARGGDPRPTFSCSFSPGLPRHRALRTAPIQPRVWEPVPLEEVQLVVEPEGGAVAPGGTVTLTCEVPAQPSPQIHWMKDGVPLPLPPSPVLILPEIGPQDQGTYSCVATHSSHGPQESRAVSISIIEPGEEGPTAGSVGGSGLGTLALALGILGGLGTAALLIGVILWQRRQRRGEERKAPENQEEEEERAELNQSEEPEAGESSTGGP
UniProt P26447: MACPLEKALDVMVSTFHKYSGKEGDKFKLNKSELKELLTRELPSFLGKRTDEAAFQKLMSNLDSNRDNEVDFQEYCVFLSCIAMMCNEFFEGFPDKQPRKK

Tests used:
[1] = molecular target: human RAGE (receptor for advanced glycation end-products) (human) (UniProt Q15109); experiment: SPR; S100A4, S100A9 and a 1:1 mixture of S100A4/9 injected (2 min at 30 µL/min) over immobilised RAGE or TLR4; no competitor; both purified
[2] = molecular target: human RAGE (receptor for advanced glycation end-products) (human) (UniProt Q15109); experiment: SPR; Biacore 3000, inhibition format: S100A9 (50 nM), S100A4 (100 nM) or ~1.3 µg/mL S100A4, S100A9 and their 1:1 mixture, pre-incubated with oxyclozanide (OX), injected over RAGE or TLR4/MD2 immobilised on a CM5 chip (~3 kRU); HBS-P with 1 mM Ca++, 20 µM Zn++, 1% DMSO; both purified
[3] = molecular target: human RAGE (receptor for advanced glycation end-products) (human) (UniProt Q15109); experiment: SPR; inhibition with 0.98-500 ng/mL heparan sulfate (HS): ~1.3 µg/mL S100A4, S100A9 or the 1:1 mixture injected over immobilised RAGE; 1 mM Ca++, 20 µM Zn++, no DMSO; both purified

- binding [1]: binds
- binding [2]: binds
- binding [3]: binds
Substance: recombinant human S100A4 (from UniProt P26447 1-101)

No constants are given. Whether binding was seen depends on the method and setting. A result given as binding can be weak or reduced; the word gives no strength.
